Data reported in paper PMC7819943, “Rice protein-binding microarrays: a tool to detect cis-acting elements near promoter regions in rice”.
Some of the results follow.

By UniProt entry, the sequences of proteins in these tests, tags left out.
UniProt Q0JBA9, entry or part of it: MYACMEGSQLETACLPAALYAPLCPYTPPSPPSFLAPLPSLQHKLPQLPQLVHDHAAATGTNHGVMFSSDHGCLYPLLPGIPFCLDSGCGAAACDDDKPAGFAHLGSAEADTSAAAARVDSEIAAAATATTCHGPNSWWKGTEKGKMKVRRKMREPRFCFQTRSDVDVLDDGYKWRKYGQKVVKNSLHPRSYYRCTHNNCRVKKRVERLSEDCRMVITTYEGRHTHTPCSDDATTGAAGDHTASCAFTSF

biological target: OsWRKY34 (Oryza sativa, UniProt Q0JBA9 1-250); experiment: protein-binding microarray (RPBM); PBS, 2% BSA, 51.3 ng/ul salmon testes DNA, 50 uM zinc acetate, 200 nM TF, 25 C, 1 h; high values mean tight binding; details: protein: recombinant; tags: N-terminal polyhistidine and DsRed monomer fusion (pET32a); label: CyDye5-dUTP incorporated in the synthesized complementary strand; 3' TTTTT single-stranded linker to array surface; dsDNA, one strand shown
Procedure, shortened: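 The binding signal is fluorescence intensity per feature, in arbitrary units, read on an Axon 4000B scanner. Polyhistidine- and DsRed-tagged transcription factors (N-terminal fusions) from E. coli BL21-CodonPlus were purified on Ni–NTA and applied at 200 nM for 1 h at 25 °C to a double-stranded, BSA-blocked custom Agilent array in buffer with 50 µM zinc acetate.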

| Sequence | binding signal |
| --- | --- |
| TCCCCTGTTCTCGTACACAAATTCGCAGCGATCTAATAGTCGGAGTCACCTAGTGCAG | 8480 fluorescence intensity (a.u.) |
| CCTTCCACTACTACTGCTCGTGCTCGATCGGCCAACCATGCGGAGTCACCTAGTGCAG | 9400 fluorescence intensity (a.u.) |
| TGGCGGCGGTGGGAGTCAGTTGCGGCTGCTTCGCGGGGTACGGAGTCACCTAGTGCAG | 11300 fluorescence intensity (a.u.) |
| AACTAAATCCCTCGGCAATTTTGACTCCGGTTTTATCCTTCGGAGTCACCTAGTGCAG | 9620 fluorescence intensity (a.u.) |
| ACAACTATGAAATTCATGCCTATCTCGATATCTCCAAGATCGGAGTCACCTAGTGCAG | 8330 fluorescence intensity (a.u.) |
| ACTGACCTTAGCTTAGCTTACCTTAGCTCAACCCCAAGCTCGGAGTCACCTAGTGCAG | 8360 fluorescence intensity (a.u.) |
| CGATGATCAGTGTGATTCAGTGTTTGCTGCTTTTCTTTAACGGAGTCACCTAGTGCAG | 8180 fluorescence intensity (a.u.) |
| AAGTACATCCCTTCGTCTCTTTGCTCCGTGCTGTCCGCCCCGGAGTCACCTAGTGCAG | 10900 fluorescence intensity (a.u.) |
| TCGCCGAGGACACCCATCCCGTCGCTAGCTCGTCGCATCGCGGAGTCACCTAGTGCAG | 8410 fluorescence intensity (a.u.) |
| TCATGTGTTGGTTCTTCGGTTAATCTCCTAGTGGCTCTATCGGAGTCACCTAGTGCAG | 8440 fluorescence intensity (a.u.) |
| TCGAAATTTCAGACATCTACTACTTCTGTGCCATGTCGAACGGAGTCACCTAGTGCAG | 8840 fluorescence intensity (a.u.) |
| CTCCTCTGCGCTGCCGTTCCCCGTTATTCGCCAACGCTTCCGGAGTCACCTAGTGCAG | 10200 fluorescence intensity (a.u.) |
| GCCTCGCGTACGCTCTCCGCTACTACTTCAGTTCTCGCTCCGGAGTCACCTAGTGCAG | 9000 fluorescence intensity (a.u.) |
| ATACTTCAATTGTTGTACTAGTTTTTAGCTTCCTGTTCCACGGAGTCACCTAGTGCAG | 10900 fluorescence intensity (a.u.) |
| AAATTTACTTTAATATGATTATAATTTTATTGCAATAAACCGGAGTCACCTAGTGCAG | 8060 fluorescence intensity (a.u.) |
| TCCTTTTCTCGCCGCTCCTCCTTCCCCGCCCCGCCACCTCCGGAGTCACCTAGTGCAG | 8090 fluorescence intensity (a.u.) |
| CATCCAATCCACACATATAGTTACCTCCTTTGCCTTTGGACGGAGTCACCTAGTGCAG | 8150 fluorescence intensity (a.u.) |
| CGGTTGCCATCTTCGTAAATAACCTCAACGACAGGGGTATCGGAGTCACCTAGTGCAG | 8040 fluorescence intensity (a.u.) |
| CTTTTCGTTTGATTAATCACAAGTCACTTTTTATGGTTTTCGGAGTCACCTAGTGCAG | 9800 fluorescence intensity (a.u.) |
| TCTTCATGTATTTCATGCTTTCTTCTTCATGTATTGTTAGCGGAGTCACCTAGTGCAG | 10600 fluorescence intensity (a.u.) |
| CACACGATATGATGTTTCTACCTCTCATTGTCATGTATTCCGGAGTCACCTAGTGCAG | 8920 fluorescence intensity (a.u.) |

Pulled one by one from above (three):

| Sequence | binding signal |
| --- | --- |
| TCGCCGAGGACACCCATCCCGTCGCTAGCTCGTCGCATCGCGGAGTCACCTAGTGCAG | 8410 fluorescence intensity (a.u.) |
| ATACTTCAATTGTTGTACTAGTTTTTAGCTTCCTGTTCCACGGAGTCACCTAGTGCAG | 10900 fluorescence intensity (a.u.) |
| CACACGATATGATGTTTCTACCTCTCATTGTCATGTATTCCGGAGTCACCTAGTGCAG | 8920 fluorescence intensity (a.u.) |

(list continues)

| Sequence | binding signal |
| --- | --- |
| TGCATATCTGTAATTCTACTTCACCTCCAGGTTGTCGTCTCGGAGTCACCTAGTGCAG | 9730 fluorescence intensity (a.u.) |
| CCCGCACACTATTGCAATCCGGAGGTTTTTACCTGTGTTCCGGAGTCACCTAGTGCAG | 8880 fluorescence intensity (a.u.) |
| GTTTATAATTAGTTTTTTTATTAGTGCCCGAACACCTCATCGGAGTCACCTAGTGCAG | 8110 fluorescence intensity (a.u.) |
| TAATTTCCGTCTCCCTTTATCACGTGAGTGAGTCGCGTCTCGGAGTCACCTAGTGCAG | 8700 fluorescence intensity (a.u.) |
| CGACCAGAAAAATATCTCCTCCGCTTTTTGCGCTTTTTTTCGGAGTCACCTAGTGCAG | 9690 fluorescence intensity (a.u.) |
| GTCGCCTCCAAAAGCTTCTCTCATCAGTTTCTCTCACTCCCGGAGTCACCTAGTGCAG | 9470 fluorescence intensity (a.u.) |
| TCGATCGCTGCTGTAAGTTTGTAACATGTGCGTGTCCTGCCGGAGTCACCTAGTGCAG | 12400 fluorescence intensity (a.u.) |
| GTTGATTTTTGAAAAATTAACCTTTTTATGCATCTTTTGTCGGAGTCACCTAGTGCAG | 9510 fluorescence intensity (a.u.) |
| TGTTTGTTACTTTGATTACGCTCTTGTTTTGTTTATGAAACGGAGTCACCTAGTGCAG | 10900 fluorescence intensity (a.u.) |
| CTATTGTTTTATGTGGTTTCTCTCTCATCAATTGGGTTGACGGAGTCACCTAGTGCAG | 8830 fluorescence intensity (a.u.) |
| CCCGAGTCGTCGACCTCTCCTCGTTCCTCACAACCACCGCCGGAGTCACCTAGTGCAG | 11800 fluorescence intensity (a.u.) |
| CCACAGCGCGCACCGGTCTCCGCCTTCAATGCATCATCTTCGGAGTCACCTAGTGCAG | 11700 fluorescence intensity (a.u.) |
| GATTTCTGTGTTTTTCCTGTGGTCCAATCAAACGGTCATTCGGAGTCACCTAGTGCAG | 12700 fluorescence intensity (a.u.) |
| AATACTCCTTTCTTTTTCTGACTTATATTTTGTTACGGTTCGGAGTCACCTAGTGCAG | 13600 fluorescence intensity (a.u.) |
| GCTTCGCCGGCCGCCCCGCACTCGACGTCTTGCTCCGTTCCGGAGTCACCTAGTGCAG | 8550 fluorescence intensity (a.u.) |
| GACGCGTGCTTTTTTTTTTCTGCGTGGTGGTGTTGGTTGACGGAGTCACCTAGTGCAG | 10900 fluorescence intensity (a.u.) |
| ATCCCCGCTTCTGGACGAGTCAAGTTTGGTCAACGTCGGACGGAGTCACCTAGTGCAG | 9190 fluorescence intensity (a.u.) |
| CTCCCGTTCGTCGTCTCCATGCCGCGCGTCCTGCAATCCGCGGAGTCACCTAGTGCAG | 8390 fluorescence intensity (a.u.) |
| AATGAAGATCACCTTTATTCGCCGTTCCAGTCACGGATTCCGGAGTCACCTAGTGCAG | 9190 fluorescence intensity (a.u.) |
| CGTCCACTCCATCTCCGCCTCCAGTGGGTCATCATATCTCCGGAGTCACCTAGTGCAG | 10300 fluorescence intensity (a.u.) |
| TTAGGTAATATTCACCTCGATCGTTTGTATATTTTTGCCTCGGAGTCACCTAGTGCAG | 8360 fluorescence intensity (a.u.) |
